Results are given in words; binding and its absence hold for the method and conditions named. Binding seen in cells or lysates may run through a third protein. Some results given as binding are weak or reduced against the parent protein; the word gives no strength. Where a sequence is shown, tags or fusion partners need not be part of it.
Target: Syt7-mCherry (UniProt O43581)
Assay: co-IP; 293 T cells transfected with HA-Esyt1 and Syt7 plasmids; immunoprecipitation with anti-mCherry antibody, precipitates analysed with anti-HA antibody

By UniProt entry, the sequences of proteins in these tests, tags left out.
UniProt O43581: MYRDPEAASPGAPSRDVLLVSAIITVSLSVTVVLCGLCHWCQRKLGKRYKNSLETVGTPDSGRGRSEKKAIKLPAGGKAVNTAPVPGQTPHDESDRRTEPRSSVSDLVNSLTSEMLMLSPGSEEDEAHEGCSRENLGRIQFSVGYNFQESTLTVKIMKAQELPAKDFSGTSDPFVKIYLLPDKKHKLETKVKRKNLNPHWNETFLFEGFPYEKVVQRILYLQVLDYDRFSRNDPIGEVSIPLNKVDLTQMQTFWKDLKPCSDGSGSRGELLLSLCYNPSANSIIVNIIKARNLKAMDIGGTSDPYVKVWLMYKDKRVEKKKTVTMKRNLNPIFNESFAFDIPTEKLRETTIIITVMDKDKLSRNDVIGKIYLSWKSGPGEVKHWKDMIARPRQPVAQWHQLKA

binding: binds
B1: HA-Esyt1 (protein, UniProt Q9BSJ8 1-1104)
chain: MERSPGEGPSPSPMDQPSAPSDPTDQPPAAHAKPDPGSGGQPAGPGAAGEALAVLTSFGRRLLVLIPVYLAGAVGLSVGFVLFGLALYLGWRRVRDEKERSLRAARQLLDDEEQLTAKTLYMSHRELPAWVSFPDVEKAEWLNKIVAQVWPFLGQYMEKLLAETVAPAVRGSNPHLQTFTFTRVELGEKPLRIIGVKVHPGQRKEQILLDLNISYVGDVQIDVEVKKYFCKAGVKGMQLHGVLRVILEPLIGDLPFVGAVSMFFIRRPTLDINWTGMTNLLDIPGLSSLSDTMIMDSIAAFLVLPNRLLVPLVPDLQDVAQLRSPLPRGIIRIHLLAARGLSSKDKYVKGLIEGKSDPYALVRLGTQTFCSRVIDEELNPQWGETYEVMVHEVPGQEIEVEVFDKDPDKDDFLGRMKLDVGKVLQASVLDDWFPLQGGQGQVHLRLEWLSLLSDAEKLEQVLQWNWGVSSRPDPPSAAILVVYLDRAQDLPLKKGNKEPNPMVQLSIQDVTQESKAVYSTNCPVWEEAFRFFLQDPQSQELDVQVKDDSRALTLGALTLPLARLLTAPELILDQWFQLSSSGPNSRLYMKLVMRILYLDSSEICFPTVPGCPGAWDVDSENPQRGSSVDAPPRPCHTTPDSQFGTEHVLRIHVLEAQDLIAKDRFLGGLVKGKSDPYVKLKLAGRSFRSHVVREDLNPRWNEVFEVIVTSVPGQELEVEVFDKDLDKDDFLGRCKVRLTTVLNSGFLDEWLTLEDVPSGRLHLRLERLTPRPTAAELEEVLQVNSLIQTQKSAELAAALLSIYMERAEDLPLRKGTKHLSPYATLTVGDSSHKTKTISQTSAPVWDESASFLIRKPHTESLELQVRGEGTGVLGSLSLPLSELLVADQLCLDRWFTLSSGQGQVLLRAQLGILVSQHSGVEAHSHSYSHSSSSLSEEPELSGGPPHITSSAPELRQRLTHVDSPLEAPAGPLGQVKLTLWYYSEERKLVSIVHGCRSLRQNGRDPPDPYVSLLLLPDKNRGTKRRTSQKKRTLSPEFNERFEWELPLDEAQRRKLDVSVKSNSSFMSRERELLGKVQLDLAETDLSQGVARWYDLMDNKDKGSS
